# Columns and labels:
# Chains of the proteins cited; added tags and fusions are not shown.
# UniProt O43613, whole entry: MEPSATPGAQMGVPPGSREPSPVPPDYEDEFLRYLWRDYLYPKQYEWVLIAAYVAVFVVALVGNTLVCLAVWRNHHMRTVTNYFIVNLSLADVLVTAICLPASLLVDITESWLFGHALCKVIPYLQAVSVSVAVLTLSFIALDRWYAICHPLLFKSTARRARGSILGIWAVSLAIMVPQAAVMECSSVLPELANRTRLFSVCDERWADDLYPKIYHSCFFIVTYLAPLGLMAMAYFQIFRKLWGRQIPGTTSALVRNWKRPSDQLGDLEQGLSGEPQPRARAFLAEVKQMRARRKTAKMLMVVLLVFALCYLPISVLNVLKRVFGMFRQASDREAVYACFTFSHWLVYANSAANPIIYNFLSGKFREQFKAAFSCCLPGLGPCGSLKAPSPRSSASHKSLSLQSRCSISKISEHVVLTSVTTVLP
# UniProt O43614, whole entry: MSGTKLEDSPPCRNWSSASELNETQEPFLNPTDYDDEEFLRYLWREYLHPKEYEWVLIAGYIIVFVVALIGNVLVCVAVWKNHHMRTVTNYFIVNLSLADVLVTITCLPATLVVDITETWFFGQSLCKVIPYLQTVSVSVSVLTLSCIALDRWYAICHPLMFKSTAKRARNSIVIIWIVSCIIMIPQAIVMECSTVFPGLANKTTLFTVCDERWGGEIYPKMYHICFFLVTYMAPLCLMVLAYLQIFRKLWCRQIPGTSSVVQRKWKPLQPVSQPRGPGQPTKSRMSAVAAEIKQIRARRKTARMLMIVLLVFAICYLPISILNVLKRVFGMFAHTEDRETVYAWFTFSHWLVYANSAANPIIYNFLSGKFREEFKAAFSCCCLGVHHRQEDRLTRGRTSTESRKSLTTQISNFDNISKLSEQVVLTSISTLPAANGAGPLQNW
# hOx1R = hOx1R (Homo sapiens (Human), UniProt O43613); test: Calcium accumulation in cells (FLIPR), hOx1R; type: cell-based; settings: inhibition of orexin A induced calcium accumulation, Cheng and Prusoff correction
# Experimental: (§1) Calcium Accumulation in Cells (FLIPR):
# (§2) Cells expressing human orexin 1 or human orexin 2 receptors, were seeded at 8,000 cells/well in 384 well black-walled clear bottom, poly-D-lysine coated plates. After 24 h, the medium was removed and cells were washed once with phosphate buffered saline and serum-deprived overnight in assay buffer (130 mM NaCl, 5.4 mM KCl, 1.8 mM CaCl2, 0.8 mM MgSO4, 0.9 mM NaH2PO4, 25 mM glucose, 20 mM HEPES, pH 7.4) containing bovine serum albumin (1% w/v).
# (§3) On the day of the experiment, the cells seeded in black plates were treated with assay buffer containing the Ca^2+ sensitive fluorescent dye Fluo-4-AM (2 μM), and probenecid (0.1 mM). After 1 h plates were washed twice with, and resuspended in, assay buffer containing probenecid (0.1 mM) using a multi plate washer. […] Fluorescence measurements were then continued every 1 S for 120 S followed by every 4 S for 240 S.
# (§4) The measurements were typically made in two sequences:
# (§5) Compounds of formula I were tested usually in a concentration range from 10^−9 M to 10^−5 M.
# (§6) In the second round, performed one hour later (to allow for equilibration), Orexin A was tested either in the absence (calibration curves, Orexin A agonist controls) or in the presence of compounds of formula I to determine antagonism.
# hOx2R = hOx2R (Homo sapiens (Human), UniProt O43614); test: Calcium accumulation in cells (FLIPR), hOx2R; type: cell-based; settings: inhibition of orexin A induced calcium accumulation, Cheng and Prusoff correction
# Experimental: as §1, §2, §3, §4, §5, §6
smiles,measurement,setting,value
"O=C1N(Cc2c[nH]c3ccccc23)CCCC12CCN(c1ccc3nccn3n1)CC2 [Example 168, 2-((1H-indol-3-yl)methyl)-9-(imidazo[1,2-b]pyridazin-6-yl)-2,9-diazaspiro[5.5]undecan-1-one]",Ki,hOx1R,2.38 µM
same,Ki,hOx2R,0.184 µM

# Source: patent publication US8530648B2, “Diaza-spiro[5.5]undecanes” (Novartis AG, priority 2009, dated 2013)
